# Screen size: about 31,000 sequences; about 1,400 (4.5%) were called active.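 Rule for the calls: active = median seed-adjusted z-score above 1 or below -1; inactive = the rest.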 Some of the results follow.
# Experiment: Novel Modifiers of Survival Motor Neuron (SMN) Protein: Gene Identification via Genome-wide siRNA Screen;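 note: luminescence tracks full-length SMN protein made from the SMN2 reporter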
# Conditions: HEK293T SMN2-luciferase reporter, siRNA knockdown, 72 h; actives lie on both sides
# In short: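 Each of three siRNAs per gene is reverse-transfected (1 pmol) into reporter HEK293T cells whose luciferase output tracks SMN protein level. After 72 h culture, ONE-Glo luminescence is control-normalized, log10-transformed and MAD-standardized; Common Seed Analysis deprioritizes seed-driven hits.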
row,Sequence,median seed-adjusted z-score
1,GUUUCUACAGCUACGCAUATT against RBL2,inactive: 0.0211
2,GAUUUAUAAAUCGAAAUGATT against CSDA,inactive: 0
3,GCACUUCCAUUAUCUGAAATT against FNTB,inactive: -0.0163
4,ACUCCAUCCUGAACCCUCATT against USP49,inactive: 0.549
5,AGUGGGAUGUGGUAAGCUATT against TRPV2,inactive: -0.227
6,GCACAAGCACUAACCUUAUTT against ZNF177,inactive: 0.363
7,GCCUGGUACUACUAGCUUUTT against TRPC5,active: -1.14
8,GUAACAUCAAUGACUAUUATT against ZNF131,inactive: 0.645
9,GUACAAGGAAUAUAUCAUUTT against PTGR1,inactive: 0
10,ACUCAAUCCUCGGACUUUUTT against NEUROD1,inactive: 0
11,GAAUCGGACAAAGACAGAATT against PRKCB1,inactive: 0.0463
12,CUGCUGCUCUGAAUCCGUUTT against TMEM86B,inactive: -0.465
13,CUAUGACGGUGUGUGACCATT against TIGD5,inactive: 0
14,AGCUAAAUCCCAAGGAUGATT against PILRA,inactive: 0.0834
15,GGAAACCCGUAGAUACAGATT against ZMAT1,inactive: -0.123
16,GCAAUGACAAAGCAACAAATT against GTF2B,inactive: -0.855
17,CAAUAGAUCAAGUUAUACATT against KPNA5,inactive: -0.174
18,GGAUCUUGCAAUCAAGCUATT against TARBP1,inactive: 0.491
19,GCAAGAUCCGAGAAGAAUATT against TUBB,inactive: -0.307
20,GAUCAGAUGGGUCAAGAUATT against SMAD5,inactive: -0.701
21,CCAACGACCUGGGCAAAAATT against MCAM,inactive: -0.0884
22,CUAUGGUCUAUGCACAAAATT against DHRS12,inactive: 0.118

row,Sequence,median seed-adjusted z-score
1,CCAUGGAUUUUAUGAGGAATT against ECHDC1,inactive: 0.554
2,GCAGGGAUCUUACAUCUAUTT against CENTD2,inactive: -0.305
3,GCCUCACCACCGAUGAGUATT against BLVRB,inactive: 0.0133
4,AGACCGUAAUUAUCGUCCUTT against EDG1,inactive: -0.316
5,CGAUUAGUGGUUAAGACUUTT against OSCAR,inactive: 0.114
6,CGGAGAUCUGGGCACUGUATT against ZNF696,inactive: 0.17
7,GCAAAGAGGGUGACAAGUUTT against S100A4,inactive: 0.567
8,GCUCAUACCUCAUUCAACATT against ZNF565,inactive: 0.457
9,AGAGAAUACCUACAAAUGUTT against ZNF680,inactive: 0.142
10,GGCACUAGCUUGAGCCCAATT against QPRT,inactive: 0.15
11,CCAAGGCUCGUGACACUAATT against XPR1,inactive: -0.024
12,AGAGAGUGAUUGCUCUUGATT against IMMP2L,inactive: 0.919
13,GCUUUUACAACAUUUCGAATT against SLC30A4,inactive: 0.158
14,CUAUAGUGGUUCAUCACAATT against GCNT1,inactive: 0.463
15,UAGAUUUCCUCGCCUAUGATT against GSTM4,inactive: -0.204
16,GAUGAUACCCUGAACUUCATT against SEMA6A,inactive: -0.192
17,CCUCUGCUCUCGUUAGCUATT against TRPC4AP,inactive: 0.106
18,GUCGUCUCCUAAUCCUAUATT against RB1CC1,inactive: 0.0878
19,GGACAUUAGAAGAGUCCAATT against PPM1D,inactive: -0.66
20,GGCAUUUACCUGACUGAUUTT against ENTPD1,inactive: 0.567
21,GCAUGGAGAUGAUUUACGUTT against PIK3C3,inactive: 0
22,GGUCACUUUUUAUUGUCCATT against ZNF621,inactive: 0

row,Sequence,median seed-adjusted z-score
1,CUACCAGGAUGUUGAUAAATT against ZNF761,inactive: 0.291
2,GUAUCGUGGUGUCAGCUAUTT against JAK3,inactive: -0.0926
3,CAAUGUCCGUGAUCAUGAUTT against SARDH,inactive: -0.195
4,GCAACGCCAGAAUCCAGCATT against FLT3LG,inactive: -0.166
5,UGGUAAUAAUGUCAAGAAATT against GPD1L,inactive: 0.11
6,GACCUGAAUUGUAUCAUCATT against MAPK3,inactive: -0.573
7,GCACAAGUUCUAAUGCUAATT against TTC5,inactive: -0.296
8,AAGUCUCAUUCGUGGUUGATT against ST6GALNAC6,inactive: 0.367
9,GGGAAUUUCUGACCUAGUATT against ABCD3,inactive: -0.24
10,ACCUGUUAAUGGCCUUUGUTT against SLC30A3,active: -1.26
11,CAGUGUAUUUUGCACGAGATT against TAOK1,inactive: -0.0533
12,GGUCUAAAGGUGGAGAUAATT against EIF2C2,inactive: -0.183
13,ACAGAUCUAGAAGACCUCATT against NAT9,inactive: -0.657
14,CAGUCAGAAUGCACACCUATT against ZNF570,inactive: 0.662
15,CGACCUAGUUCACGAUGAATT against TEKT3,inactive: 0.0494
16,GGCCUUACGCAUUUGCUGATT against RHOG,inactive: -0.354
17,AAUUGAUAUGUAUACAGAATT against GSTA3,inactive: 0.334
18,GAAUCGCAAAGGUAGAAUUTT against DNAH7,inactive: 0.287
19,CGAUGACAAAGUUUAUUCATT against FAM3B,inactive: -0.327
20,CCAACGGCAUCGACAUGAATT against KCNH2,inactive: 0.1
21,GCCCAUUCUUUCAUCCGAATT against ZNF462,inactive: 0.0487
22,GCCUGCAAAAUGUUCCUCATT against VAV2,inactive: 0.975

# A run of entries taken from the entries so far:
row,Sequence,median seed-adjusted z-score
15,UAGAUUUCCUCGCCUAUGATT against GSTM4,inactive: -0.204
16,GAUGAUACCCUGAACUUCATT against SEMA6A,inactive: -0.192
17,CCUCUGCUCUCGUUAGCUATT against TRPC4AP,inactive: 0.106

# Additional results follow:

row,Sequence,median seed-adjusted z-score
1,GCUGCGUCCAGGAAGAUUATT against PSMC6,inactive: -0.578
2,GAAGAAAAUGAAUCGAGAATT against HOXA10,inactive: -0.112
3,GGAUUGUUACAGUUCAGAATT against DDX58,inactive: -0.113
4,CAGCAAUUCUUAGUCUACUTT against FGG,inactive: -0.043
5,CGGCACUUUACUUCACAUATT against HMOX2,inactive: 0
6,AUAUAUCUGCUGUACAUCATT against TRPV6,inactive: -0.511
7,GCGUGAUCCCUUUACAGUUTT against GFPT1,inactive: 0.416
8,AGAUAUCCAUCAUGCACUUTT against GPR77,inactive: 0
9,GGCUGGAAAACAUUCCCAATT against SLITRK1,inactive: 0.215
10,CCAGUUUAUUGGAAACCGATT against NOP56,inactive: 0.307
11,CUCAAGGGCUGAAAAUAAATT against S100A6,inactive: -0.264
12,CUCCUACAUUUCAAGCAUATT against ALG8,inactive: -0.0604
13,GCCCUUUCAUCUCACAGAUTT against ASNA1,inactive: 0.357
14,CAUCCAUUCUACAUCCGUATT against VHL,inactive: -0.0797
15,GCAACGAAGACAUAAGAGATT against STX18,inactive: -0.151
16,GAUCCGCACGGACUGCUUUTT against ACVRL1,inactive: -0.361
17,GGCUUGAAAAGUAACGAAUTT against ZNF229,inactive: -0.497
18,GGAUUAUUCCUACCUAAUUTT against CDYL2,inactive: -0.379
19,CCAGUGUACUCAGUCUAUUTT against STAM2,inactive: -0.24
20,GACAAAUGUUUGGUCAAUUTT against A2BP1,active: 1.17
21,GCACGUUUGAGUACGAAUATT against SFPQ,active: -1.15
22,AGAUCUUCAACUUGAUGAATT against RGS14,inactive: 0.655

row,Sequence,median seed-adjusted z-score
1,GCAGAAUUACAAGACAAGATT against VWA5A,inactive: 0
2,AGUGCGUGAAUGUAUGUAATT against RASSF1,inactive: -0.719
3,CCAUCCUGAUAAGAACCCATT against DNAJA1,inactive: -0.00548
4,GCAAUGAAGUUAAAUGAGUTT against GSTO1,inactive: 0.188
5,CCCUCGGGAUCACACUUAUTT against MFSD1,inactive: -0.0833
6,CAGUCUACCUCGAACGCAUTT against USP42,inactive: -0.0125
7,GACCUUUGGUCAGAGCAGATT against ZNF506,inactive: -0.235
8,GCUCAGAUCCCUUCCGACATT against LMX1A,inactive: 0.15
9,GGAUAUAAAAUUCGCUGUATT against BBS2,inactive: 0
10,GGAACCUCCUGUACGAGUATT against SARS2,inactive: 0.524
11,GUACAUAGAUGAUUUACCATT against TM9SF3,inactive: -0.267
12,GCAAAGUCUAUGUUAGGUATT against GALNTL5,inactive: -0.363
13,GGCAAACUGACUCACGUUATT against ATP1B4,inactive: 0.664
14,CAUCUGCACUCACAAAUCATT against CBFA2T2,inactive: -0.201
15,CGAUGCCCAUGACUAUGUATT against ST6GALNAC2,inactive: 0
16,GCGACGACUUUGACUGGUUTT against CHPF,inactive: 0.248
17,GAUUAUACAUAUUUCGCAATT against BRCA2,inactive: 0
18,GAGGUGCAGCGGUUCAUCATT against CYP2W1,inactive: -0.0986
19,GCUCGGCAUCUGUUGGUUATT against SIRT3,inactive: -0.341
20,CAACUAUCAUGGACAUUCATT against FXYD5,inactive: -0.0885

# In another format: entries from further up.
row	Sequence	median seed-adjusted z-score
3	GCACUUCCAUUAUCUGAAATT against FNTB	inactive: -0.0163
8	GCUCAUACCUCAUUCAACATT against ZNF565	inactive: 0.457
